{
  "source": "the supplement of paper PMC4604168 (melanoma cell lines)",
  "note": "Some of the results follow. Single values are uncertain, as repeats are few or missing.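 Imaging used 1,536-well plates; nuclei positive for cleaved PARP by antibody were divided by total DNA-stained nuclei to yield the apoptosis fraction. Doses for screening kept most cells viable, and cell lines differ markedly in resting and induced cleaved-PARP levels.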",
  "data": [
    {"tested_on": "CBRC016 (line from a melanoma biopsy)", "assay": "cleaved PARP positive nuclei fraction relative to DMSO control; higher = more apoptosis", "conditions": "library dose: low library concentration; 72 h", "units": {"cleaved PARP positive nuclei fraction": "%"}, "values": [
      {"smiles": "Cc1cc(Nc2cc(N3CCN(C)CC3)nc(Sc3ccc(NC(=O)C4CC4)cc3)n2)n[nH]1", "note": "[Tozasertib] + COc1cc2c(Oc3ccc4[nH]c(C)cc4c3F)ncnc2cc1OCCCN1CCCC1 [cediranib] (first compound 0.006 µM, partner dose 0.4 µM)", "cleaved PARP positive nuclei fraction": 29.9},
      {"smiles": "O=c1[nH]nc(Sc2ncc([N+](=O)[O-])s2)n1-c1ccc2c(c1)OCCO2", "note": "+ NCC(=O)Nc1ccc(-n2nc(C(F)(F)F)cc2-c2ccc3c(ccc4ccccc43)c2)cc1 [OSU03012] (first compound 0.2 µM, partner dose 1 µM)", "cleaved PARP positive nuclei fraction": 146},
      {"smiles": "N#CC[C@H](C1CCCC1)n1cc(-c2ncnc3[nH]ccc23)cn1", "note": "[ruxolitinib] + CN(C)S(=O)(=O)c1ccc2c(c1)/C(=C/c1cc3c([nH]1)CCCC3)C(=O)N2 [SU6656] (first compound 1 µM, partner dose 0.4 µM)", "cleaved PARP positive nuclei fraction": 108},
      {"smiles": "CC[C@]1(O)C[C@H]2CN(CCc3c([nH]c4ccccc34)[C@@](C(=O)OC)(c3cc4c(cc3OC)N(C=O)[C@H]3[C@@](O)(C(=O)OC)[C@H](OC(C)=O)[C@]5(CC)C=CCN6CC[C@]43[C@@H]65)C2)C1", "note": "[vincristine] + O=C(Nc1cccc(Cl)c1)Nc1ncc(CCNc2ncnc3ccsc23)s1 [SNS314] (first compound 0.0001 µM, partner dose 0.0008 µM)", "cleaved PARP positive nuclei fraction": 76.1}
    ]},
    {"tested_on": "CBRC017 (line from a melanoma biopsy)", "assay": "cleaved PARP positive nuclei fraction relative to DMSO control; melanoma cells; higher = more apoptosis", "conditions": "library dose: low library concentration; 72 h", "units": {"cleaved PARP positive nuclei fraction": "%"}, "values": [
      {"smiles": "O=C(/C=C/c1cccnc1)NCCCCC1CCN(C(=O)c2ccccc2)CC1", "note": "+ CC1(C)NC(=O)N(c2ccc([N+](=O)[O-])c(C(F)(F)F)c2)C1=O [nilutamide] (first compound 0.01 µM, partner dose 1 µM)", "cleaved PARP positive nuclei fraction": 280},
      {"smiles": "Cc1ccc(Nc2nccc(N(C)c3ccc4c(C)n(C)nc4c3)n2)cc1S(N)(=O)=O", "note": "[Pazopanib] + C[C@@H]1CCN(C(=O)CC#N)C[C@@H]1N(C)c1ncnc2[nH]ccc12 [CP690550] (first compound 0.4 µM, partner dose 1 µM)", "cleaved PARP positive nuclei fraction": 116},
      {"smiles": "O=C(Nc1cc(C(F)(F)F)cc(C(F)(F)F)c1)c1cc(Cl)ccc1O", "note": "+ Cc1cc(N2CCOCC2)cc2[nH]c(-c3c(NC[C@@H](O)c4cccc(Cl)c4)cc[nH]c3=O)nc12 [BMS536924] (first compound 0.016 µM, partner dose 0.2 µM)", "cleaved PARP positive nuclei fraction": 154},
      {"smiles": "Cc1cn(-c2cc(NC(=O)c3ccc(C)c(Nc4nccc(-c5cccnc5)n4)c3)cc(C(F)(F)F)c2)cn1", "note": "[nilotinib] + CO[C@@H]1[C@H](N(C)C(=O)c2ccccc2)C[C@H]2O[C@]1(C)n1c3ccccc3c3c4c(c5c6ccccc6n2c5c31)C(=O)NC4 [Midostaurin] (first compound 0.2 µM, partner dose 0.08 µM)", "cleaved PARP positive nuclei fraction": 83.1},
      {"smiles": "O=C(Nc1cc(C(F)(F)F)cc(C(F)(F)F)c1)c1cc(Cl)ccc1O", "note": "+ NC(=O)Nc1cc(-c2cccc(F)c2)sc1C(=O)N[C@H]1CCCNC1 [AZD7762] (first compound 0.016 µM, partner dose 0.02 µM)", "cleaved PARP positive nuclei fraction": 95.8},
      {"smiles": "Cc1ccc(Nc2nccc(N(C)c3ccc4c(C)n(C)nc4c3)n2)cc1S(N)(=O)=O", "note": "[Pazopanib] + COc1cc2c(Oc3ccc4[nH]c(C)cc4c3F)ncnc2cc1OCCCN1CCCC1 [cediranib] (first compound 0.4 µM, partner dose 0.4 µM)", "cleaved PARP positive nuclei fraction": 86.5},
      {"smiles": "Cc1cn(-c2cc(NC(=O)c3ccc(C)c(Nc4nccc(-c5cccnc5)n4)c3)cc(C(F)(F)F)c2)cn1", "note": "[nilotinib] + Cc1cc(N2CCOCC2)cc2[nH]c(-c3c(NC[C@@H](O)c4cccc(Cl)c4)cc[nH]c3=O)nc12 [BMS536924] (first compound 0.2 µM, partner dose 0.2 µM)", "cleaved PARP positive nuclei fraction": 91.1},
      {"smiles": "O=c1[nH]nc(Sc2ncc([N+](=O)[O-])s2)n1-c1ccc2c(c1)OCCO2", "note": "+ O=C(Nc1cccc(Cl)c1)Nc1ncc(CCNc2ncnc3ccsc23)s1 [SNS314] (first compound 0.2 µM, partner dose 0.0008 µM)", "cleaved PARP positive nuclei fraction": 88.1},
      {"smiles": "Cc1ccc(Nc2nccc(N(C)c3ccc4c(C)n(C)nc4c3)n2)cc1S(N)(=O)=O", "note": "[Pazopanib] + Cc1cc(N2CCOCC2)cc2[nH]c(-c3c(NC[C@@H](O)c4cccc(Cl)c4)cc[nH]c3=O)nc12 [BMS536924] (first compound 0.4 µM, partner dose 0.2 µM)", "cleaved PARP positive nuclei fraction": 126}
    ]}
  ]
}
